The list shows a part of the results.
Tests used:
Experiment in all cases: log2 fold change, soluble protein after heating vs DMSO (PISA); higher = thermal stabilisation; K562 cells, 10 uM, 30 min; active = over 0.2 and 3.5 SD of the protein, either way, in both replicates (recomputed)
[1] = compound: CN1CCN(CCOc2cc(OC3CCOCC3)c3c(Nc4c(Cl)ccc5c4OCO5)ncnc3c2)CC1 [saracatinib]
How it was run: (§1)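 K562 cells at 2×10^6 cells/mL were treated for 30 min with 10 μM compound, and aliquots were heated for 3 min over 48°C-58°C before pooling. Extraction used PBS with 0.5% NP-40 at 4°C, and soluble protein was the supernatant after 21,000xg for 90 min, measured by TMTpro 16plex LC-MS/MS with channel sums equalised. Thermal stability values, relative to control samples and from duplicates, are log2 fold changes.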

By UniProt entry, the sequences of proteins in these tests, tags left out. Where a name states a change or a piece, a line headed by the entry shows the natural chain unless it says otherwise.
UniProt O43719: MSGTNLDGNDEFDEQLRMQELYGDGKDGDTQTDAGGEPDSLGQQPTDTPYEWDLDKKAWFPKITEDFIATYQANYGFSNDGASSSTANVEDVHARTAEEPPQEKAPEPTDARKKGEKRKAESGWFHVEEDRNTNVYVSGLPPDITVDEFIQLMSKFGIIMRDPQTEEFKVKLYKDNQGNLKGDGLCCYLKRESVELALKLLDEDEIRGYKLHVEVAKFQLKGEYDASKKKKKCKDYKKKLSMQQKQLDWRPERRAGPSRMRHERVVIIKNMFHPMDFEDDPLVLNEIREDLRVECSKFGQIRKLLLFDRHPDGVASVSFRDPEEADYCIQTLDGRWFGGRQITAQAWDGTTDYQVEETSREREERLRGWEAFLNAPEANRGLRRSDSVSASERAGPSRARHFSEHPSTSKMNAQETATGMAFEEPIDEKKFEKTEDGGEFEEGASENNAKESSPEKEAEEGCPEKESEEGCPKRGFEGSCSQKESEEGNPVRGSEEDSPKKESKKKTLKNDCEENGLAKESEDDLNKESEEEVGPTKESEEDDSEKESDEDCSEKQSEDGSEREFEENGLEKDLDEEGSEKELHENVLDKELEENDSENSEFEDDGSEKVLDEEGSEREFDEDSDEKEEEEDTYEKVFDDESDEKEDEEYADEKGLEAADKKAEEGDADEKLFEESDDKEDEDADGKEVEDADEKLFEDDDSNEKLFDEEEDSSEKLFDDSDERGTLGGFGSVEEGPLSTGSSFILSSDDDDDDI
UniProt P19367: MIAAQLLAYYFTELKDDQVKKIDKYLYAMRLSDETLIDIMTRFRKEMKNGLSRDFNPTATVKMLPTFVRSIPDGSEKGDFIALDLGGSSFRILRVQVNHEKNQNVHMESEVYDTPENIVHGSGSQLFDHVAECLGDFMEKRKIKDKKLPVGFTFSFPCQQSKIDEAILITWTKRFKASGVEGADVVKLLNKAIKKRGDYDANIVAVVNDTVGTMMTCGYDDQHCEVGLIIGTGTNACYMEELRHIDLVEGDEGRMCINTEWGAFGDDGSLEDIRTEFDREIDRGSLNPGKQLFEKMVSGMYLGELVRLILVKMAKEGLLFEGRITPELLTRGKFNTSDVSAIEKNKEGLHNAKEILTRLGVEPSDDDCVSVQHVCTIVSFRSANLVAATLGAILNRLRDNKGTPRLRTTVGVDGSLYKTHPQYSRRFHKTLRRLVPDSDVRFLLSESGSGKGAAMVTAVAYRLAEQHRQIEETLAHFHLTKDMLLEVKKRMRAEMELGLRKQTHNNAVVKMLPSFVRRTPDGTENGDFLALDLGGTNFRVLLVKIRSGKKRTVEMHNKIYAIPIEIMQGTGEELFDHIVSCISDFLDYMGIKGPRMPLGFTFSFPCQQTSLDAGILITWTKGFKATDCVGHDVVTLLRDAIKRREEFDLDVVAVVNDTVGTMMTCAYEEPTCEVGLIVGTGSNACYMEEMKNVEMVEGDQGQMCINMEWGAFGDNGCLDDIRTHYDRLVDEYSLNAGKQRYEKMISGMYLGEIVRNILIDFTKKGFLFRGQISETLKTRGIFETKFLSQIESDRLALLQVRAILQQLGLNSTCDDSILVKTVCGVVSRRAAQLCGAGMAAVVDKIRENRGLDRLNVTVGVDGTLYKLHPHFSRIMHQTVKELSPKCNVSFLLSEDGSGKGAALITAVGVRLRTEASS
UniProt Q2TB90: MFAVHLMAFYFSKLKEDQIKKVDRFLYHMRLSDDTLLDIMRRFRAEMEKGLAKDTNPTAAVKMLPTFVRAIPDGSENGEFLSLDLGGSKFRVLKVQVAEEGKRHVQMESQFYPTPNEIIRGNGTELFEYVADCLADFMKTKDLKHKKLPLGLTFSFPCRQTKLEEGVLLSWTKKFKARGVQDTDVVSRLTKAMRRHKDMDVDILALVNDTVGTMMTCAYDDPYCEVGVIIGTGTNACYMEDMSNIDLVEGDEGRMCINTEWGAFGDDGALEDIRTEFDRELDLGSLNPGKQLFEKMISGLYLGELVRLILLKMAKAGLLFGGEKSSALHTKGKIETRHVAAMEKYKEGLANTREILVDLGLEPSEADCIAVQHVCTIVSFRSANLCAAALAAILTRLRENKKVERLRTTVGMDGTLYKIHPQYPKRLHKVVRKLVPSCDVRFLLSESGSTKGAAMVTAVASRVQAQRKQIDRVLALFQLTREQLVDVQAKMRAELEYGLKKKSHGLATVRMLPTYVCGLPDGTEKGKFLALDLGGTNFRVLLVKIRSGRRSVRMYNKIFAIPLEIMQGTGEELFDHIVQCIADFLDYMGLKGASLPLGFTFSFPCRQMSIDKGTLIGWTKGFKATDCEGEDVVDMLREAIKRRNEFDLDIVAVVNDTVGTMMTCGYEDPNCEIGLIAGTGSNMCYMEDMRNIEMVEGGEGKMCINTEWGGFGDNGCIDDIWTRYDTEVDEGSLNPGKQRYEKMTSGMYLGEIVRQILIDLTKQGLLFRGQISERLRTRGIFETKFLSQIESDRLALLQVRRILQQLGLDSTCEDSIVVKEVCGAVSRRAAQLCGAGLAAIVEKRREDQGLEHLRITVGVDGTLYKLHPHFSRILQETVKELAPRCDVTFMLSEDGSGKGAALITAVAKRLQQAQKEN
UniProt P56937: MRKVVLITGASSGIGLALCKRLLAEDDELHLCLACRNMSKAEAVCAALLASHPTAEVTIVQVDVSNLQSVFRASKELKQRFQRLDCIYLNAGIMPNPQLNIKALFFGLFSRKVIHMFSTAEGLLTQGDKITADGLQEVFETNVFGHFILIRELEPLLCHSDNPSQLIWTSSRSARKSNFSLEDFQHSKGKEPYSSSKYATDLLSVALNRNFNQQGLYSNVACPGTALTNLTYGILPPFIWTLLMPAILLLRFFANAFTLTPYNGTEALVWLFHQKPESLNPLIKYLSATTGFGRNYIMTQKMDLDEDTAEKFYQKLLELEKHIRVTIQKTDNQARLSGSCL
UniProt O14979: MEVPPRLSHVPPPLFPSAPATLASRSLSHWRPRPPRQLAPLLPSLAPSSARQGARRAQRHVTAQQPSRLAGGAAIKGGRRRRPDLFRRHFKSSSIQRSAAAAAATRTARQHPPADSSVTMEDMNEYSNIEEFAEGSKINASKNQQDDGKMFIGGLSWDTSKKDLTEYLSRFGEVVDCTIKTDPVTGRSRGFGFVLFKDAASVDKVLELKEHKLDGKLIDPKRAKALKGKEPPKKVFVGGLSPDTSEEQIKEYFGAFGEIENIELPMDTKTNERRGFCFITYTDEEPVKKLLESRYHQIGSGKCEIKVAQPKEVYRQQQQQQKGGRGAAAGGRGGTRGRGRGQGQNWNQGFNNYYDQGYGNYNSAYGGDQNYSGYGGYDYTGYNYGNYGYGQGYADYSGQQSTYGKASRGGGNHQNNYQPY
UniProt Q99714: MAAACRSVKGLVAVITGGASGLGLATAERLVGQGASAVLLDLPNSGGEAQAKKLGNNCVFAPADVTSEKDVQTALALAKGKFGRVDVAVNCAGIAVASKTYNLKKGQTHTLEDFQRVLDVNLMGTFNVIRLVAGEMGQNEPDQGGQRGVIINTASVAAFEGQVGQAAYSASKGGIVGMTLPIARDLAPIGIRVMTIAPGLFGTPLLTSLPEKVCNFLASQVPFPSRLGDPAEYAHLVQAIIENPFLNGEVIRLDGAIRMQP
UniProt Q13151: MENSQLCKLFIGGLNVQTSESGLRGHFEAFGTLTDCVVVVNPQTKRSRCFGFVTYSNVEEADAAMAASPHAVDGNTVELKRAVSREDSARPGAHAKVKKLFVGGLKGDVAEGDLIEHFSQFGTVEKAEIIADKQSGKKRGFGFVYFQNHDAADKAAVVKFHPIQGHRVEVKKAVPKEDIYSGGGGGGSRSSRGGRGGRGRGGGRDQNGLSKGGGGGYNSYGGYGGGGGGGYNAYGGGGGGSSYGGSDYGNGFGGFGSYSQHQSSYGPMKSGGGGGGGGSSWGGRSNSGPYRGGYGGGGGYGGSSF
UniProt P17482: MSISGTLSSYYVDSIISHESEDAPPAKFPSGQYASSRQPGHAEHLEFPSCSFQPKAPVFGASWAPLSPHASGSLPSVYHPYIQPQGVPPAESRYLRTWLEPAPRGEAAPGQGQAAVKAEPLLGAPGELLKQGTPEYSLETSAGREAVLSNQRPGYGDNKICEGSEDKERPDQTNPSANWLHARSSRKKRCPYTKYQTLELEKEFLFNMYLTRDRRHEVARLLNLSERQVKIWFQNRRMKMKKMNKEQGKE
UniProt P49773: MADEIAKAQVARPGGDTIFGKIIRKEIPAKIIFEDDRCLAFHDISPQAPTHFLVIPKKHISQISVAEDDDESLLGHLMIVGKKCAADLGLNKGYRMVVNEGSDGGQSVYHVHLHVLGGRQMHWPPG
UniProt P17096: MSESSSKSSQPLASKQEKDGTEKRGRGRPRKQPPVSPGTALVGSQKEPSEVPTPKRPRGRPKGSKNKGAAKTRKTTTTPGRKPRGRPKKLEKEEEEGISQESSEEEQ
UniProt P82970: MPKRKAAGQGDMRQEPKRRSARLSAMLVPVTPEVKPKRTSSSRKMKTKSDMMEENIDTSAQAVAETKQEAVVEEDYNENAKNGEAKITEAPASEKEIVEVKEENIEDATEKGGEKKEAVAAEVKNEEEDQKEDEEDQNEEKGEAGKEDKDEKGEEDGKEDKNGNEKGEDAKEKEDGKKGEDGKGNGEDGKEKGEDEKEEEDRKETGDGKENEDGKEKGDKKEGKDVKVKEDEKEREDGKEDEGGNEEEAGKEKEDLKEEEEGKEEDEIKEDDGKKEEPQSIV
UniProt Q8WVV9: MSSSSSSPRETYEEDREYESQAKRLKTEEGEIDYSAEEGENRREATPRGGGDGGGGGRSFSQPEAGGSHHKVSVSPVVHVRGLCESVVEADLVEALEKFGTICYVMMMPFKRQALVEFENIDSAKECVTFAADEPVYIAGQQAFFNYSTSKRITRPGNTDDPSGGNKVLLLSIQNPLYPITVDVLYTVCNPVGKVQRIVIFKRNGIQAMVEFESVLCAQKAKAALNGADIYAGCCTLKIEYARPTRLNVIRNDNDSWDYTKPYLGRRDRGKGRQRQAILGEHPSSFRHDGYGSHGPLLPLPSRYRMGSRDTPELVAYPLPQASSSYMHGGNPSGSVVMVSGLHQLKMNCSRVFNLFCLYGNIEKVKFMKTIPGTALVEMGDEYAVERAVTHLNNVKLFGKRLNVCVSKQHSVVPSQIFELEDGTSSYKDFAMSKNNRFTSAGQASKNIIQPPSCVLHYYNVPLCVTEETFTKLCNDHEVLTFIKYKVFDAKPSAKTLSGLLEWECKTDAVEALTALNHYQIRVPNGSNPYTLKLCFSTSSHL
UniProt P50747: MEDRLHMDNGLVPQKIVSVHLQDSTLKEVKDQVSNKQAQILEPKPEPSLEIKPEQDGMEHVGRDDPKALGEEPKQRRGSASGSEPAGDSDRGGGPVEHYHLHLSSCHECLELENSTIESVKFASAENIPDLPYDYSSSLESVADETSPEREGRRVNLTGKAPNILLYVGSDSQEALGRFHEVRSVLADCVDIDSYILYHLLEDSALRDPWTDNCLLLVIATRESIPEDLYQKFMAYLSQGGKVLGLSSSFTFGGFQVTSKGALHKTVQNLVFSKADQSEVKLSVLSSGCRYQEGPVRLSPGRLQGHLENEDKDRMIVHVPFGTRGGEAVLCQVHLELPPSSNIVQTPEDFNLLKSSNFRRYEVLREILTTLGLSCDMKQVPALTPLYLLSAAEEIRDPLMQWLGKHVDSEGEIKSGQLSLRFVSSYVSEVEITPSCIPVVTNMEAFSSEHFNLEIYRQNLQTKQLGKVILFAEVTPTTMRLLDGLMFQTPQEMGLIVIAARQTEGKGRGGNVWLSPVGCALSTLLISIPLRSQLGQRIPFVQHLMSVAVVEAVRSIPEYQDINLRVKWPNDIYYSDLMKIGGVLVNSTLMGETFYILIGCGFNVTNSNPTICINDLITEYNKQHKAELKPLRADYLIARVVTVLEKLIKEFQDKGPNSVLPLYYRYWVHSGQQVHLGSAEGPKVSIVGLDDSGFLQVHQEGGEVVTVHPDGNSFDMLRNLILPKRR
UniProt P0DMV8, whole entry, looked up: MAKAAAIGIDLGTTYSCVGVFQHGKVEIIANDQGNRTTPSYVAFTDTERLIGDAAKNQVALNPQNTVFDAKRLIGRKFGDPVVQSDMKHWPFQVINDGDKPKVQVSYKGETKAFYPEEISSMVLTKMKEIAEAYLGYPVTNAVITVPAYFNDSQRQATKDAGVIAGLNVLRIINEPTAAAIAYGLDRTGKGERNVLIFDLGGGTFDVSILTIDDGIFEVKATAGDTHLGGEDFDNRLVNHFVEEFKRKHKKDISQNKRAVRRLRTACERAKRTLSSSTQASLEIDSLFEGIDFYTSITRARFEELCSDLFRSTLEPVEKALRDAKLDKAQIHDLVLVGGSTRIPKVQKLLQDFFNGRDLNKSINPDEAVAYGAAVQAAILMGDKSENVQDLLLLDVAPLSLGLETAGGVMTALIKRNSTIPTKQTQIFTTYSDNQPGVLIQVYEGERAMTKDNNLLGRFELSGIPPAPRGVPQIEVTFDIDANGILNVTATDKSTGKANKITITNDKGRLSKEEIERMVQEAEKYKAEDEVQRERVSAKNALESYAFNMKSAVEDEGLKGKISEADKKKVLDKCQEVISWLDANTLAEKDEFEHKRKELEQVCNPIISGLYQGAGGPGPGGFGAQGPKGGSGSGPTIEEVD

[2] = compound: CN1CCN(c2nc(C3=C(c4c[nH]c5ccccc45)C(=O)NC3=O)c3ccccc3n2)CC1 [sotrastaurin]
How it was run: as §1

[3] = compound: CN1CC[C@H](c2c(O)cc(O)c3c(=O)cc(-c4ccccc4Cl)oc23)[C@H](O)C1 [alvocidib]
How it was run: as §1

[4] = compound: CN1CCc2c(c3ccccc3n2Cc2ccc(C(=O)NO)cc2)C1 [Tubastatin A]
How it was run: as §1

[5] = compound: CNC(=O)C1=CC=CC=C1NC2=NC(=NC=C2Cl)NC3=C(C=C(C=C3)N4CCOCC4)OC
How it was run: as §1

[6] = compound: CNC(=O)c1ccc(Nc2ncc(C(F)(F)F)c(NCc3nccnc3N(C)S(C)(=O)=O)n2)cc1 [defactinib]
How it was run: as §1

[7] = compound: CNCc1ccc(-c2[nH]c3cc(F)cc4c3c2CCNC4=O)cc1 [rucaparib]
How it was run: as §1

[8] = compound: CNc1nc(-c2ccc3c(N)n[nH]c3c2)cc(N2C[C@@H](C(=O)NC3CCCCC3)CC[C@H]2C)n1
How it was run: as §1

[9] = compound: COC(=O)N[C@@H](C)CNc1nccc(-c2cn(C(C)C)nc2-c2cc(Cl)cc(NS(C)(=O)=O)c2F)n1 [encorafenib]
How it was run: as §1

[10] = compound: COC(=O)[C@H](CCSC)NC(=O)C1=C(C=C(C=C1)NC[C@H](CS)N)C2=CC=CC=C2
How it was run: as §1

Measured: log2 fold change

HTATSF1 (UniProt O43719)
inactive: [1] -0.052 | [2] -0.172 | [3] -0.239 | [4] 0.112 | [5] 0.065 | [6] -0.306 | [7] -0.126 | [8] -0.005 | [9] 0.037 | [10] 0

HSDL2 (UniProt Q6YN16)
inactive: [1] -0.035 | [2] -0.062 | [3] -0.125 | [4] 0.017 | [5] 0.027 | [6] -0.086 | [7] -0.007 | [8] 0.062 | [9] 0.001 | [10] -0.074

HK1 isoform 2 (UniProt P19367)
inactive: [1] -0.001 | [2] 0.005 | [3] -0.009 | [4] -0.032 | [5] -0.105 | [6] -0.005 | [7] -0.032 | [8] -0.083 | [9] 0.004 | [10] 0.022

HGS (UniProt O14964)
inactive: [1] 0.042 | [2] -0.056 | [3] -0.069 | [4] 0.004 | [5] 0.019 | [6] -0.016 | [7] -0.027 | [8] -0.054 | [9] 0.011 | [10] -0.007

HYOU1 (UniProt Q9Y4L1)
inactive: [1] -0.072 | [2] -0.06 | [3] 0.011 | [4] 0.022 | [5] 0.09 | [6] 0.044 | [7] 0.005 | [8] -0.001 | [9] 0.048 | [10] 0.008

HKDC1 (UniProt Q2TB90)
inactive: [1] 0.038 | [2] 0.046 | [3] -0.052 | [4] -0.047 | [5] -0.075 | [6] -0.039 | [7] -0.032 | [8] -0.006 | [9] 0.028 | [10] -0.046

HUS1 (UniProt O60921)
inactive: [1] -0.005 | [2] 0.01 | [3] -0.032 | [4] -0.1 | [5] -0.029 | [6] -0.044 | [7] 0 | [8] -0.011 | [9] 0.014 | [10] -0.044

HNRNPR isoform 2 (UniProt O43390)
inactive: [1] -0.012 | [2] 0.025 | [3] 0.106 | [4] 0.057 | [5] 0.035 | [6] 0.142 | [7] 0.134 | [8] 0.029 | [9] 0.028 | [10] -0.002

HSD17B7 (UniProt P56937)
inactive: [1] -0.004 | [2] -0.031 | [3] -0.195 | [4] 0.012 | [5] 0.048 | [6] 0.017 | [7] -0.113 | [8] -0.014 | [9] 0.059 | [10] -0.018

HNRNPDL (UniProt O14979)
inactive: [1] 0.029 | [2] 0.091 | [3] 0.333 | [4] -0.052 | [5] 0.297 | [6] 0.277 | [7] 0.248 | [8] -0.048 | [9] 0.033 | [10] 0.029

HSD17B4 (UniProt P51659)
inactive: [1] 0.004 | [2] 0.016 | [3] -0.047 | [4] -0.037 | [5] 0.059 | [6] -0.002 | [7] -0.01 | [8] -0.02 | [9] -0.016 | [10] -0.002

HSD17B10 (UniProt Q99714)
inactive: [1] 0.081 | [2] -0.099 | [3] -0.094 | [4] -0.008 | [5] 0.032 | [6] -0.037 | [7] -0.063 | [8] -0.011 | [9] 0.043 | [10] -0.029

HNRNPD (UniProt Q14103)
inactive: [1] -0.032 | [2] 0.108 | [3] 0.209 | [4] 0.012 | [5] 0.015 | [6] 0.243 | [7] 0.163 | [8] -0.023 | [9] 0.017 | [10] 0.036

HNRNPA0 (UniProt Q13151)
inactive: [1] -0.09 | [2] -0.042 | [3] 0.213 | [4] 0.155 | [5] -0.11 | [6] 0.311 | [7] 0.146 | [8] 0.058 | [9] -0.045 | [10] 0.012

HOXB9 (UniProt P17482)
inactive: [1] -0.022 | [2] -0.071 | [3] -0.027 | [4] 0.148 | [5] 0.064 | [6] -0.066 | [7] -0.116 | [8] 0.114 | [9] 0.129 | [10] 0.02

HMGN5 (UniProt Q5JSK9)
inactive: [1] -0.173 | [2] 0.092 | [3] -0.018 | [4] 0.024 | [5] -0.189 | [6] 0 | [7] -0.07 | [8] -0.114 | [9] 0.065 | [10] 0.039

HINT1 (UniProt P49773)
inactive: [1] -0.053 | [2] -0.048 | [3] -0.025 | [4] -0.013 | [5] 0.046 | [6] -0.008 | [7] 0.006 | [8] -0.085 | [9] -0.084 | [10] 0.101

HSP90AA1 isoform 2 (UniProt P07900)
inactive: [1] 0.008 | [2] 0.001 | [3] -0.064 | [4] -0.003 | [5] 0.003 | [6] -0.031 | [7] -0.055 | [8] -0.005 | [9] 0.024 | [10] 0.001

2 entries drawn at random from those above:
HUS1 (UniProt O60921)
inactive: [1] -0.005 | [2] 0.01 | [3] -0.032 | [4] -0.1 | [5] -0.029 | [6] -0.044 | [7] 0 | [8] -0.011 | [9] 0.014 | [10] -0.044

HSDL2 (UniProt Q6YN16)
inactive: [1] -0.035 | [2] -0.062 | [3] -0.125 | [4] 0.017 | [5] 0.027 | [6] -0.086 | [7] -0.007 | [8] 0.062 | [9] 0.001 | [10] -0.074

(continued)

HMGA1 (UniProt P17096)
inactive: [1] -0.058 | [2] 0.065 | [3] 0.178 | [4] 0.003 | [5] -0.101 | [6] 0.109 | [7] 0.136 | [8] 0.061 | [9] 0.032 | [10] 0.027

HUWE1 (UniProt Q7Z6Z7)
inactive: [1] 0.01 | [2] -0.04 | [3] -0.044 | [4] 0.012 | [5] 0.025 | [6] -0.032 | [7] -0.006 | [8] -0.003 | [9] 0.021 | [10] -0.001

HMGN5 (UniProt P82970)
inactive: [1] -0.01 | [2] 0.012 | [3] 0.039 | [4] -0.011 | [5] 0.02 | [6] 0.028 | [7] -0.063 | [8] -0.04 | [9] 0.033 | [10] -0.002

HMGB2 (UniProt P26583)
inactive: [1] -0.004 | [2] 0.03 | [3] -0.007 | [4] -0.003 | [5] 0.02 | [6] -0.009 | [7] 0.049 | [8] 0 | [9] -0.057 | [10] 0.024

HMGCL (UniProt P35914)
inactive: [1] 0.057 | [2] -0.022 | [3] -0.055 | [4] -0.084 | [5] -0.003 | [6] -0.043 | [7] -0.027 | [8] -0.029 | [9] -0.02 | [10] 0.037

HNRNPD isoform 4 (UniProt Q14103)
inactive: [1] 0.137 | [2] 0.073 | [3] 0.425 | [4] 0.039 | [5] -0.022 | [6] 0.017 | [7] 0.156 | [8] 0 | [9] 0.085 | [10] -0.105

HNRNPLL (UniProt Q8WVV9)
inactive: [1] -0.028 | [2] -0.286 | [3] -0.204 | [4] 0.187 | [5] -0.097 | [6] -0.104 | [7] -0.01 | [8] -0.098 | [9] 0.224 | [10] -0.003

HMCN1 (UniProt Q96RW7)
inactive: [1] 0.493 | [2] 0.259 | [3] 0.004 | [4] -0.145 | [5] 0.323 | [6] -0.106 | [7] -0.288 | [8] 0.171 | [9] 0.038 | [10] 0.133

HLCS (UniProt P50747)
inactive: [1] 0.039 | [2] -0.033 | [3] -0.068 | [4] 0.048 | [5] -0.004 | [6] -0.019 | [7] 0.119 | [8] 0.027 | [9] 0.028 | [10] 0.012

HSPA1A (UniProt P0DMV8)
inactive: [1] 0.049 | [2] 0.034 | [3] 0.015 | [4] -0.04 | [5] 0.019 | [6] 0.011 | [7] -0.024 | [8] -0.036 | [9] -0.022 | [10] 0.041

HNRNPA1 (UniProt P09651)
inactive: [1] -0.03 | [2] 0.024 | [3] 0.254 | [4] 0.023 | [5] 0.016 | [6] 0.438 | [7] 0.338 | [8] 0.068 | [9] 0.07 | [10] -0.017

HSD17B8 (UniProt Q92506)
inactive: [1] 0.076 | [2] 0.023 | [3] -0.021 | [4] -0.01 | [5] -0.009 | [6] -0.043 | [7] -0.045 | [8] -0.059 | [9] -0.009 | [10] -0.041

Source: the supplement of paper PMC10849652
